Paper PMC5996148
The list shows a part of the results. For some of these results: Construct or isoform of the protein are uncertain.

Legend:
Assay in all cases: protein microarray (ProtoArray v5.0), streptavidin-Alexa Fluor 647
Settings in all cases: 3'-biotin; 20 mM Tris (pH 7.5), 5 mM MgCl2, 100 mM KCl, 0.1% Tween-20, A/T-rich and random oligonucleotide blockers; temperature not stated; high values mean tight binding
[1] = target: T1, RNF4 (UniProt P78317)
T1 sequence: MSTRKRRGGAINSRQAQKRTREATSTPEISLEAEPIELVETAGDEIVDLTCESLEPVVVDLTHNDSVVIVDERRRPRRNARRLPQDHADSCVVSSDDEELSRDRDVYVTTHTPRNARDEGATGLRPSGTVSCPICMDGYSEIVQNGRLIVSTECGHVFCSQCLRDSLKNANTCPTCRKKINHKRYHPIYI

[2] = system: RPAIN (human)
[3] = target: RPIA (UniProt P49247)
[4] = target: RPL31 (UniProt P62899)
[5] = system: RPLP2 (human)
[6] = system: RRN3 (human)
[7] = target: RSBN1L (UniProt Q6PCB5)
[8] = target: T2, RTN1 (UniProt Q16799)
T2 sequence: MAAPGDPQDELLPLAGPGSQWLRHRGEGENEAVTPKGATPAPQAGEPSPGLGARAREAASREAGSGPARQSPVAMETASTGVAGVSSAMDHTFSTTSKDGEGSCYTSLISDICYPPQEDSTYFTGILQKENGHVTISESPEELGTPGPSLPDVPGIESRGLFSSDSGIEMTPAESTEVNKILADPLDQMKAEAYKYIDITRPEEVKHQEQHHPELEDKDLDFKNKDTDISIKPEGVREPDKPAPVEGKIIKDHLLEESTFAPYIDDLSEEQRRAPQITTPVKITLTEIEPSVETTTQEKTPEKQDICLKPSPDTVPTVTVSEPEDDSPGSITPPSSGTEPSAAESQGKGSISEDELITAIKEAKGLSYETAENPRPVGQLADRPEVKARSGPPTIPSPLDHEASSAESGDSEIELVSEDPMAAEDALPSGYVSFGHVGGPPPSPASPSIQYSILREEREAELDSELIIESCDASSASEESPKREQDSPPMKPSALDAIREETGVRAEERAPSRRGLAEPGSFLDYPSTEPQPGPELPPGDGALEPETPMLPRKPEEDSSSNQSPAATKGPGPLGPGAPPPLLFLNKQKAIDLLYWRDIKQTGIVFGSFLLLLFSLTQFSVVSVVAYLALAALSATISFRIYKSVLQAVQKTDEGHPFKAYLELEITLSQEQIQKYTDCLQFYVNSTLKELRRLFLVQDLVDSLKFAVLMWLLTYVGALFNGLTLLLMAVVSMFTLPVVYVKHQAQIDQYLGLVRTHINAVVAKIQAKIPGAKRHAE

[9] = system: RUNX1T1 (human)
[10] = system: RWDD1 (human)

Q: “GGTGACAGGGGTATGGGGAGGGG [G4-2 biotinylated (Ct1)]” was tested. Which binding signal [1] did it give?
A: 4.1 z-score

Q: What about the binding signal [2] of the same sequence?
A: -0.366 z-score

Q: And the binding signal [3]?
A: -0.379 z-score

Q: And the binding signal [4]?
A: 3.19 z-score

Q: What about the binding signal [5] of the same sequence?
A: -0.398 z-score

Q: And the binding signal [6]?
A: -0.374 z-score

Q: What about the binding signal [7] of the same sequence?
A: 3.61 z-score

Q: What about the binding signal [8] of the same sequence?
A: -0.382 z-score

Q: And the binding signal [9]?
A: -0.39 z-score

Q: What about the binding signal [10] of the same sequence?
A: -0.373 z-score
